Source: PubChem BioAssay AID652259 (Drosophila RNAi Screening Center, 2013)

- Aim: 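Genome-wide hunt for genes that control Wingless pathway activity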 (primary screen)
- Cell system: Drosophila clone 8 imaginal disc epithelial cells
- Knock-down reagent: long dsRNA against Drosophila genes
- Conditions: pathway stimulated by co-transfected Wingless expression plasmid
- Measured: 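Firefly luciferase from a tcf-site Wingless reporter, measured alongside co-transfected Renilla luciferase that tracks transfection; pathway stimulated by a Wingless plasmid; the firefly-to-Renilla ratio is not deposited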
- Scale: firefly reporter light: higher = more Wg reporter light, before normalisation; Renilla control light: higher = more transfected or surviving cells
- Rule for the call: 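Strong candidates differ from their plate mean by at least two out of four per-plate statistical tests; weak candidates meet just one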
- Calls: active = candidate regulator (raises or lowers reporter); inactive = not a candidate
The screen tested about 22,000 reagents; shown is an unselected part of those with a known target gene and a result. Of all reagents, 233 (1.1%) were called active. 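Light values are raw, unnormalised plate reads; the ratio scores behind the reporter calls were not deposited.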 Unmarked entries are inactive. Names joined by + are all predicted targets of the reagent. No sequences are given here. Not given: the amount of reagent, the time to read-out, the dose of the treatment.

target	dsRNA	firefly reporter light, replicate 1	firefly reporter light, replicate 2	Renilla control light, replicate 1	Renilla control light, replicate 2
CG31544 (retired record)	DRSC12466	1862		1068	
CG12971	DRSC11681	15812		4565	
Mur89F	DRSC15544	15257		3570	
CG6813	DRSC16122	18089		3445	
CG9555	DRSC03264	2148	5585	658	2515
CG16894	DRSC06634	11072		3448	
CG16894	DRSC21785	5.46e5	6.24e5	1.77e5	1.98e5
CG10527	DRSC04078	12410		3248	
Mekk1	DRSC16302	3764	8195	1968	1222
Mekk1	DRSC16303	21072		2885	
Nxf3	DRSC21749	2.80e5	2.90e5	1.46e5	1.07e5
CG15186	DRSC12566	13081		2202	
CG5742	DRSC06949	20563		5520	
CG33689	DRSC09424	3504		1714	
eIF2Bepsilon	DRSC18769	2554	5984	1088	2244
CG11317	DRSC14299	3549	6048	1154	2104
Acbp4	DRSC11023	2152	5491	1314	2725
Nurf-38	DRSC04629	2056	4585	641	1341
Nep5	DRSC16004	2051	6274	941	1396
CG34183	DRSC01099	21564		11173	
CG10993	DRSC19362	28006		16180	
CG1698	DRSC06640	8698		2909	
Rtel1	DRSC18343	17867		8560	
Orct	DRSC16777	2516	5544	1355	1894
Uros1	DRSC18191	2272	2743	752	1533
Nna1	DRSC18993	4452		698	
Nna1	DRSC19404	3602	6557	1041	2401
CG17186	DRSC15180	14122		4486	
CG11307	DRSC11648	12114	8.25e5	5750	4.15e5
CG13843	DRSC14693	19584		12010	
Shmt	DRSC18264	17076		7953	
dgt6	DRSC14424	2246	8428	827	2828
CG17568	DRSC02628	3658	11869	1171	4747
CG43102	DRSC13261	5177		2294	
CG43102	DRSC14797	22042	7.52e5	6677	3.76e5
CG43102	DRSC16239	10108		2720	
CG16798	DRSC02517	2022	5585	890	2626
CG10866	DRSC08171	5749		2587	
CG34238	DRSC09040	3328		1220	
CG13325	DRSC06362	7880		3136	
CG9727	DRSC12585	9504		2282	
CG12011	DRSC08219	6835		5366	
spz3	DRSC02391	3080	4562	713	2032
spz3	DRSC03008	4160	7901	966	2442
Jhbp3	DRSC12247	13187		4903	
CG13678	DRSC10036	3869		1250	
CG7248	DRSC10788	8024		3728	
btv	DRSC01615	22774		10040	
btv	DRSC02449	2688	8256	656	4188
meru	DRSC09400	3249		850	
meru	DRSC09899	6199		2484	
meru	DRSC10215	8675		3192	
CG10584	DRSC11624	24138		7141	
rtet	DRSC14160	3898	9019	1793	3125
UK114	DRSC01973	2800	7251	1217	3584
ClC-c	DRSC10499	3848		1526	
CSN8	DRSC02257	14170		5024	
ksh	DRSC19554	17949		9008	
CG17806	DRSC15276	3480	7640	1552	2075
tap	DRSC11402	6624		2506	
CG12869	DRSC06208	4484		1687	
CG30154	DRSC05889	22528		12372	
CG3662	DRSC00626	6967		3076	
sff	DRSC10590	5916		1899	
CG12920	DRSC06234	3249	4608	792	1949
CG30389	DRSC04077	10620		1834	
CG30389	DRSC04452	2244	6903	903	2633
Orco	DRSC12358	14237		2361	
CG17328	DRSC01927	5360	8306	2185	3588
CG17328	DRSC22448	9.12e5	8.82e5	4.95e5	4.88e5
CG2839	DRSC00544	4707	7137	1592	3233
CG10953	DRSC06021	9425		3155	
CG18870	DRSC04313	2402	7539	696	2714
CG13516	DRSC04159	2761	6824	785	3244
Ir8a	DRSC17817	14688		6678	
Ir8a	DRSC17869	20955		8096	
CG43666 + CG43667 + CG43668	DRSC03829	25303		12317	
CG43666 + CG43667 + CG43668	DRSC04233	3072	6364	1195	2764
nSMase	DRSC08237	7547		3141	
CG8329	DRSC10978	5105		2637	
CG31087	DRSC14253	18448		17547	
Grl62a	DRSC07963	3216		1600	
CG34136	DRSC01833	16103		19202	
CSN7	DRSC06807	11261		3388	
CSN7	DRSC06808	3883	7008	749	2106
CG44153	DRSC01118	16560		6730	
CG44153	DRSC02228	14098		4538	
CG44153	DRSC02229	2668	10130	754	3821
CG44153	DRSC02231	2938	5209	1356	3220
CG44153	DRSC02233	2393	7265	835	3331
CG44153	DRSC02902	2950	7216	1128	3697
CG44153	DRSC02903	2304	7664	1379	3668
Tnks	DRSC14154	11842		10501	

Reformatted: results already given
{"target":"Mekk1","dsRNA":"DRSC16303","firefly reporter light, replicate 1":21072,"Renilla control light, replicate 1":2885}
{"target":"Nxf3","dsRNA":"DRSC21749","firefly reporter light, replicate 1":2.80e5,"firefly reporter light, replicate 2":2.90e5,"Renilla control light, replicate 1":1.46e5,"Renilla control light, replicate 2":1.07e5}
{"target":"CG15186","dsRNA":"DRSC12566","firefly reporter light, replicate 1":13081,"Renilla control light, replicate 1":2202}
{"target":"CG5742","dsRNA":"DRSC06949","firefly reporter light, replicate 1":20563,"Renilla control light, replicate 1":5520}
{"target":"CG33689","dsRNA":"DRSC09424","firefly reporter light, replicate 1":3504,"Renilla control light, replicate 1":1714}
{"target":"eIF2Bepsilon","dsRNA":"DRSC18769","firefly reporter light, replicate 1":2554,"firefly reporter light, replicate 2":5984,"Renilla control light, replicate 1":1088,"Renilla control light, replicate 2":2244}
{"target":"CG11317","dsRNA":"DRSC14299","firefly reporter light, replicate 1":3549,"firefly reporter light, replicate 2":6048,"Renilla control light, replicate 1":1154,"Renilla control light, replicate 2":2104}
{"target":"Acbp4","dsRNA":"DRSC11023","firefly reporter light, replicate 1":2152,"firefly reporter light, replicate 2":5491,"Renilla control light, replicate 1":1314,"Renilla control light, replicate 2":2725}
{"target":"Nurf-38","dsRNA":"DRSC04629","firefly reporter light, replicate 1":2056,"firefly reporter light, replicate 2":4585,"Renilla control light, replicate 1":641,"Renilla control light, replicate 2":1341}
